Results: paper PMC6884552, “Glycogen branching enzyme controls cellular iron homeostasis via Iron Regulatory Protein 1 and mitoNEET” (Nature Communications, 2019)
Changes are numbered by the printed parent chain. Results are given in words; binding and its absence hold for the method and conditions named. In cells and extracts the contact can be indirect. Here binding means that the protein was enriched with, or labelled near, the bait; the list need not be complete. Where a sequence is shown, tags or fusion partners need not be part of it.

Key:
[1] = molecular target: T1, Drosophila IRP1A in larvae (endogenously Flag-tagged IRP1A^3F as bait; endogenous IRP1A as prey) (Drosophila (endogenous in larvae)) (UniProt Q9VCV4); assay: affinity purification with mass spectrometry; prothoracic gland cells purified from dissected brain-ring gland complexes (CD8.Venus, anti-CD8 beads); 0.2% formaldehyde cross-linking; anti-Flag immunoprecipitation as for whole body
T1 sequence: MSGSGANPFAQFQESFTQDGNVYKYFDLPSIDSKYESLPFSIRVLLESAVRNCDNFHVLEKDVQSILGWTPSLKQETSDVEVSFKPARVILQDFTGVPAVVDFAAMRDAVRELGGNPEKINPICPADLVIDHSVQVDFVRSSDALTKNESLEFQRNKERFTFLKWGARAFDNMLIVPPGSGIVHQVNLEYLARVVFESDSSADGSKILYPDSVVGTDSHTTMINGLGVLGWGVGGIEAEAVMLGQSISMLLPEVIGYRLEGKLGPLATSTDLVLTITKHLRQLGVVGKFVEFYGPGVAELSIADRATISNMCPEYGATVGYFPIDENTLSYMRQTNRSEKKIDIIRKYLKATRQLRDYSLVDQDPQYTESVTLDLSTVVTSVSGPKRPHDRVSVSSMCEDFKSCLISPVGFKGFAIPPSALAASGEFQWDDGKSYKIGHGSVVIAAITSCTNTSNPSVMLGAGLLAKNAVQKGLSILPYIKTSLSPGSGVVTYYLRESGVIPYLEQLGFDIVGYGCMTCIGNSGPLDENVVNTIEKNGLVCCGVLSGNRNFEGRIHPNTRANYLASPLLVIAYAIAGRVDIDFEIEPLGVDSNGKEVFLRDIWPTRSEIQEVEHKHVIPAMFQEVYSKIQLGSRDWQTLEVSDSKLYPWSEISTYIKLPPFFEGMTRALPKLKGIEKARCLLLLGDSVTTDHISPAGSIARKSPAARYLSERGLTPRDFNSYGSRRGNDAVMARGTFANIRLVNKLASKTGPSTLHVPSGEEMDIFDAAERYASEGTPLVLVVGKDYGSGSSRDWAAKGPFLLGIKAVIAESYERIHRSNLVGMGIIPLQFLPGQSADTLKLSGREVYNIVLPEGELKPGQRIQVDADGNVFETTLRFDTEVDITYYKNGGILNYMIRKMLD

[2] = molecular target: T2, transgenic Flag-tagged Drosophila IRP1A C450S expressed in flies (Drosophila) (UniProt Q9VCV4); assay: affinity purification with mass spectrometry; samples from four fly strains expressing Flag-tagged transgenes IRP1A^C450S, IRP1B^C447S, IRP1A^3R3Q or IRP1B^3R3Q; anti-Flag immunoprecipitation; tissue per sample in Supplementary Table 2
T2 sequence: T1 sequence with C450S

[3] = molecular target: T1, Drosophila IRP1A in larvae (endogenously Flag-tagged IRP1A^3F as bait; endogenous IRP1A as prey) (Drosophila (endogenous in larvae)); assay: affinity purification with mass spectrometry; whole-body L3 larvae with Flag-tagged knock-in alleles (AGBE^FCF, IRP1A^3F, IRP1B^3F) on regular food (IRP1A^3F also after one or two generations on BPS food); 0.2% formaldehyde cross-linking in vivo; anti-Flag M2 affinity gel, 2 h, 4 °C; proteins found in untagged controls removed

Measured: binding

B1: HA-tagged Drosophila Cisd2 (natural protein, UniProt Q9VAM6 1-133, looked up)
chain: MEPISHLVKSSLPNYLSSLPVPDSIGGWFKLSFKDWLALIPPTVVVAGLGYTAYLAYCPAARASCAAKNSGRCNNHIRKNEPKVVDMIDVEDIAEKAAFCRCWKTKNWPYCDGSHGEHNKQTGDNVGPIVIKK
notes: Drosophila Cisd2, cDNA RE49709; also called mitoNEET; Cisd2/mitoNEET; source: S2 cells, transfected, in lysate
binds: all assays above
